Source: paper PMC6863955 (Frontiers in Chemistry, 2019)
Some peptides are written in HELM: one residue between dots, names in brackets for other building blocks, links after the first $.

Assay: peptide made by a vendor
Details: whole synthesis, RP-HPLC

PEPTIDE1{[Chex].R.P.D.K.P.R.P.Y.L.P.R.P.R.P.P.R.P.V.R.[am]}$$$$V2.0
purity (crude or final not stated): 97.3%
